The comparison behind a weaker result is the experiment's own reference, which may not be listed here. Where a protein sequence is shown, tags need not be part of it.
Biological target: T1, Ssd1 ΔN338 (Saccharomyces cerevisiae (S288C/BY4741 background)) (UniProt P24276)
T1 sequence (looked up): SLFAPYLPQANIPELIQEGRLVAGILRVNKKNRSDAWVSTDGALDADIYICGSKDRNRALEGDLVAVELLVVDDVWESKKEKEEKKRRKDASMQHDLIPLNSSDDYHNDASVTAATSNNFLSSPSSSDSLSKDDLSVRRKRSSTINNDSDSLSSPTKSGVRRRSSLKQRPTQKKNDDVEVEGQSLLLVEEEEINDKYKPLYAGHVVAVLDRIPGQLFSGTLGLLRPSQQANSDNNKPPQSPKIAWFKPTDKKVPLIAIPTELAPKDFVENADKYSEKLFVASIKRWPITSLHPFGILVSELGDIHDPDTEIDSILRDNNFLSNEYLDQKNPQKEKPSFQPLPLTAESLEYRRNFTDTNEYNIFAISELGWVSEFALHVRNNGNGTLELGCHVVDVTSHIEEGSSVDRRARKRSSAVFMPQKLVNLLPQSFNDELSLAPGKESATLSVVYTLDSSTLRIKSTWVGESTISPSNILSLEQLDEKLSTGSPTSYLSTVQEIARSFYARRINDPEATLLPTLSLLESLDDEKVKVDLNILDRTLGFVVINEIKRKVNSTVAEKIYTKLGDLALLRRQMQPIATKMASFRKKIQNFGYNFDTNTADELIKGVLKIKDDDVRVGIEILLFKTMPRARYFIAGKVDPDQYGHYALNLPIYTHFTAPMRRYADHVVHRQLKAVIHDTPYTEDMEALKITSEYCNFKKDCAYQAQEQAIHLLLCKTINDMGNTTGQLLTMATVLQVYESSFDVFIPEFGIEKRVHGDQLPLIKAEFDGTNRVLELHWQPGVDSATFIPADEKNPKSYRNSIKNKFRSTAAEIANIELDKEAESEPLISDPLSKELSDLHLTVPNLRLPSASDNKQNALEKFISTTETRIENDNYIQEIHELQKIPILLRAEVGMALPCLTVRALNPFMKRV
Test: EMSA
Details: 5 mM Mg acetate, barely detectable, EMSA: 0.5 uM RNA, 20 mM HEPES pH 7.5, 150 mM K acetate, 1 h on ice, gel at 4 C, recombinant protein, residues 339-1250, protein details: His tag cleaved with 3C protease, label: 5'-DY681 (EMSA), 5'-Cy3 (anisotropy)

AUUUUCACUCCUUUAA [SEE-15mer]
binding result: binds more weakly
